In patent US7169756B2 (priority 2005, dated 2007) one finds isolated mass and isolated yield data, which are given here for 1 substance.

Strings that start with PEPTIDE1 are HELM notation: dots part the residues, brackets hold end groups and non-standard residues.

A short description of the data set: general procedure: Fmoc solid-phase peptide synthesis; sulfamylbutyryl resin; PyBop/1-hydroxybenzotriazole/diisopropylethylamine. Conditions: whole synthesis, overall, scale 1 g resin.

For the substance “PEPTIDE1{[3Hpa].[Dap].T.[Orn].L.[dF].P.F}$PEPTIDE1,PEPTIDE1,2:R3-8:R2$$$V2.0”, the isolated mass stood at 10 mg and the isolated yield is 1.3%.
